Experimental data as given in paper PMC5356440.
These are yes or no findings as the source states them, for the method shown. Binding seen in cells or lysates may run through a third protein. Some binding calls cover weakened binding; strength is not graded here.

Protein sequences, listed by entry. Tags and fused reporters are not part of them.
UniProt P30622: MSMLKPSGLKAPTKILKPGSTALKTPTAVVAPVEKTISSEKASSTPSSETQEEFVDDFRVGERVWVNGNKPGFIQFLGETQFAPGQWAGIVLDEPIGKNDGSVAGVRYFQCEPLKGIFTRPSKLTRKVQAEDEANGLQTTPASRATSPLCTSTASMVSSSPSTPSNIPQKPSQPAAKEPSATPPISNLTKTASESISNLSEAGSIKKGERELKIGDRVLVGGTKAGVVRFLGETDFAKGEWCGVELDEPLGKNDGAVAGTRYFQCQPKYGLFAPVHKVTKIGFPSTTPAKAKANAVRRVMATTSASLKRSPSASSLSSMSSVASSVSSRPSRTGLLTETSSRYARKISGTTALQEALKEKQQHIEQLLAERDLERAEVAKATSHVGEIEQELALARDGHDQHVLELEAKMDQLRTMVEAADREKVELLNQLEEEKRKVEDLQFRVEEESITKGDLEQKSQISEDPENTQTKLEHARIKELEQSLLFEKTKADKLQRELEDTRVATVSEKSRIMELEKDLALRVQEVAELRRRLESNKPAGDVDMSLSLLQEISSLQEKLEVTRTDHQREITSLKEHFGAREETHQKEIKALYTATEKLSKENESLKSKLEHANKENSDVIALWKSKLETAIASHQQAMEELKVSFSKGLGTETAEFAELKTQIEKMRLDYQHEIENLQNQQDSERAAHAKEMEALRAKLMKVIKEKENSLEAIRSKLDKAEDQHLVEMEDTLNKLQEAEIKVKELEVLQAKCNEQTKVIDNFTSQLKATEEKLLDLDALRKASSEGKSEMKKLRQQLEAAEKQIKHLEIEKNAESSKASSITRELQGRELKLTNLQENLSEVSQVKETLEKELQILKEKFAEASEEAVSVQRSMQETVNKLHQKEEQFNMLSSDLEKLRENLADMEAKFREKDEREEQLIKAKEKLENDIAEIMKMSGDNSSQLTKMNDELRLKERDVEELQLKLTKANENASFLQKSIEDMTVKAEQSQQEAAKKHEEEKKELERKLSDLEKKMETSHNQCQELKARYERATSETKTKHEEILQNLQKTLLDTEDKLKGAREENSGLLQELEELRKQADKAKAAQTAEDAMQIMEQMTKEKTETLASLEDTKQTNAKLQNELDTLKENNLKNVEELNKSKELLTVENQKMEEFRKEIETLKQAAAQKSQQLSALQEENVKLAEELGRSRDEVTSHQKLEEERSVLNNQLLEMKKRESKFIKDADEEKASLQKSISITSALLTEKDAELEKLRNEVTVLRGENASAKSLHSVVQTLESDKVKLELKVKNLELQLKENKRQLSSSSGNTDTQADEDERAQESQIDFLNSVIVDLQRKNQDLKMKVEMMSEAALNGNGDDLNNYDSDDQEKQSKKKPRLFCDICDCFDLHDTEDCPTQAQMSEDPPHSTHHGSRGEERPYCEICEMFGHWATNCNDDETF
UniProt P35222: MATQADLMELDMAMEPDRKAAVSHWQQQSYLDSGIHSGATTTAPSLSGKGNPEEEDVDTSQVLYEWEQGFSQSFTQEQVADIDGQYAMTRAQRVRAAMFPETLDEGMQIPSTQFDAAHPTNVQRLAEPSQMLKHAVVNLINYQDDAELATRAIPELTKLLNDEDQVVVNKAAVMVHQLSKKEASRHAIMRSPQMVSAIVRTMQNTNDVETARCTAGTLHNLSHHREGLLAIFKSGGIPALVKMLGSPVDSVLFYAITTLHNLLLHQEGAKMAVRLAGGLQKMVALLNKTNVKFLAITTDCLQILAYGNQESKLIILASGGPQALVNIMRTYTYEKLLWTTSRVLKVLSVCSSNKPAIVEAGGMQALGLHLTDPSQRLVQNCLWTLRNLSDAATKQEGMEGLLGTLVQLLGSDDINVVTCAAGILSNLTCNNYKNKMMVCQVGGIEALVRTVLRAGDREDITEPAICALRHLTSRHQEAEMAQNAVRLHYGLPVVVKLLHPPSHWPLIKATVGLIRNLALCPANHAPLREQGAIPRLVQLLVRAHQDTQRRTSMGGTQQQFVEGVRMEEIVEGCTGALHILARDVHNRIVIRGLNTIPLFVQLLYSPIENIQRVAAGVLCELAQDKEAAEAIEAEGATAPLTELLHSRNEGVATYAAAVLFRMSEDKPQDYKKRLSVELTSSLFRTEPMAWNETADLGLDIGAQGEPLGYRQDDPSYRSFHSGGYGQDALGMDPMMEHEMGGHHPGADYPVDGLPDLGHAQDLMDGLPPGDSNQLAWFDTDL
UniProt P46940: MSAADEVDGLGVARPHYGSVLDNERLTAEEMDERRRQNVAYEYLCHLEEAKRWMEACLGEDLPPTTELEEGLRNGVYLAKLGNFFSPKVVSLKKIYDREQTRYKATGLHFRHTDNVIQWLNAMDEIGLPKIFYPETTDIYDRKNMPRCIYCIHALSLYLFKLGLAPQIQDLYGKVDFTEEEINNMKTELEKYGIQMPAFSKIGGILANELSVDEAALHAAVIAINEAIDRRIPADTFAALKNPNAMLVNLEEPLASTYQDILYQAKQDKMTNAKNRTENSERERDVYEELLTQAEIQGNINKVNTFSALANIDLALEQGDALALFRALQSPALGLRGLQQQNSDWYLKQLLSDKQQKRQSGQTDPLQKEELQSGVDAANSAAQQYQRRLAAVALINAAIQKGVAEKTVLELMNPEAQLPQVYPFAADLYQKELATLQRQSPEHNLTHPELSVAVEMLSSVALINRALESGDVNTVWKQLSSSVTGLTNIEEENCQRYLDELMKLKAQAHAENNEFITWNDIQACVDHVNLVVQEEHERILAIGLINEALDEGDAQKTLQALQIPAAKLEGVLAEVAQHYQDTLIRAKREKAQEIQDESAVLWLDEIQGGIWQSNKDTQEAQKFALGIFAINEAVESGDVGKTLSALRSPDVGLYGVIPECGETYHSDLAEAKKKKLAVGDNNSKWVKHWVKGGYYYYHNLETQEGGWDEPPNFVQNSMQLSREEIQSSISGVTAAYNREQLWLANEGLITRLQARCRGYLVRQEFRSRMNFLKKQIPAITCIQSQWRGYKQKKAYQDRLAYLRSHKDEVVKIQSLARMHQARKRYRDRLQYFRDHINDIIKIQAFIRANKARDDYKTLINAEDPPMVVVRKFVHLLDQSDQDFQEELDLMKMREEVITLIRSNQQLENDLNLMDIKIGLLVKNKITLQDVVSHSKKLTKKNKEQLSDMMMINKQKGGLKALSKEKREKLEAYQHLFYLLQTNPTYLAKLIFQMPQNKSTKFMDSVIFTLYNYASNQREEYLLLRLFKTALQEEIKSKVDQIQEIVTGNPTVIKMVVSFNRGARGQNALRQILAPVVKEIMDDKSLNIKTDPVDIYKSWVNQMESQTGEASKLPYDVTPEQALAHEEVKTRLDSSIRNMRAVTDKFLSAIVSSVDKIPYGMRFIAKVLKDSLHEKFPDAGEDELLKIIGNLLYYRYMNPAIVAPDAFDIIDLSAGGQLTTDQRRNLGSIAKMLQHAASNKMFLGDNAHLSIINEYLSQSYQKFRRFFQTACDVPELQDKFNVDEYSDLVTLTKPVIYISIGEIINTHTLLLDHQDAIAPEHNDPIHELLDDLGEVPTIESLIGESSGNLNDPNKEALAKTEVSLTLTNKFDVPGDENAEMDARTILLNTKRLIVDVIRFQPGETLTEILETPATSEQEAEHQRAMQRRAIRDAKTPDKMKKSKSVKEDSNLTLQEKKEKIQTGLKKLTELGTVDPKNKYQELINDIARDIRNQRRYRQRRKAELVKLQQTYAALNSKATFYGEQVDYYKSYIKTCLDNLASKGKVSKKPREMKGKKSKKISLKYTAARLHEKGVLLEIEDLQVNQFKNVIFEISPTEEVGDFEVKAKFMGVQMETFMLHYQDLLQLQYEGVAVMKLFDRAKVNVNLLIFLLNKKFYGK

Target: CLIP-170 (human (endogenous in TC7)) (UniProt P30622)
Test: co-IP; confluent TC7 cells lysed in M-PER; mouse monoclonal CLIP-170 F-3 (or mouse IgG as control) bound to Dynabeads protein G as bait; western blot of endogenous proteins

β-catenin (from UniProt P35222 1-781)
binding: binds

IQGAP1 (from UniProt P46940 1-1657)
binding: binds
